Laboratory results reported in paper doi:10.1101/2020.02.21.960245.
Numbering of substitutions follows the chain as printed. Names and notes keep the numbering of the source. These are yes or no findings as the source states them, for the method shown. For some of these results: In cells and extracts the contact can be indirect. Some binding calls cover weakened binding; strength is not graded here. For some of these results: Sequences can lack the tags named with a protein.

Sequences of proteins named here, by UniProt entry; tags and fusion partners are left off.
UniProt P33323: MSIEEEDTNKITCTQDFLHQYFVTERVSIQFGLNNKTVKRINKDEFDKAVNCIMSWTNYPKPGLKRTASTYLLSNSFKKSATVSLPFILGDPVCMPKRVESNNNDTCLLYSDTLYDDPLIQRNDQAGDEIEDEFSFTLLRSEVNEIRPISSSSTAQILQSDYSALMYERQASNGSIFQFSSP

T1: HisSUMORec114(325-428) F411A (S. cerevisiae) (UniProt P32841)
T1 sequence: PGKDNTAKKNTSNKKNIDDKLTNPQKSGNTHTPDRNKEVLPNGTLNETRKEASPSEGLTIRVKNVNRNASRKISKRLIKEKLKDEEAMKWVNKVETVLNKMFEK

T2: HisSUMORec114(325-428) wild type (S. cerevisiae) (UniProt P32841)
T2 sequence: T1 sequence with A87F

T3: LexA-Rec102 (S. cerevisiae) (UniProt Q02721)
T3 sequence: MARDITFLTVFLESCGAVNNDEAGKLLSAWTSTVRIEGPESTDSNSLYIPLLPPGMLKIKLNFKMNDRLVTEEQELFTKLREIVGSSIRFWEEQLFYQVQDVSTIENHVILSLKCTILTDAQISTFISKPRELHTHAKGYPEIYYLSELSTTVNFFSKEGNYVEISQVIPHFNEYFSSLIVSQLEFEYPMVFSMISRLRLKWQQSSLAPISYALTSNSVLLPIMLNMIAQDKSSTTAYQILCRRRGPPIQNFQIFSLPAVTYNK

T4: LexA-Mei4 (S. cerevisiae) (UniProt P29467)
T4 sequence: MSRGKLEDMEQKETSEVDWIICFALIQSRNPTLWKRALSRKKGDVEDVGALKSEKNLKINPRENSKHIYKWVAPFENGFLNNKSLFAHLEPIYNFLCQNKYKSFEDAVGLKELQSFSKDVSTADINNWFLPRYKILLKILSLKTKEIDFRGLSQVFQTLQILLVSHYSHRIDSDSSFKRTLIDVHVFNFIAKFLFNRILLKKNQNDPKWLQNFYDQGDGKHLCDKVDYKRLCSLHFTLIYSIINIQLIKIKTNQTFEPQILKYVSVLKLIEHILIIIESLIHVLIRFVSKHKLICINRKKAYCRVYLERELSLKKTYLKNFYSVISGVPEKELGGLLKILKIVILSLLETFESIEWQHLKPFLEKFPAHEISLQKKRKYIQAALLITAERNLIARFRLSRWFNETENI

T5: LexA-Rec114 (S. cerevisiae) (UniProt P32841)
T5 sequence: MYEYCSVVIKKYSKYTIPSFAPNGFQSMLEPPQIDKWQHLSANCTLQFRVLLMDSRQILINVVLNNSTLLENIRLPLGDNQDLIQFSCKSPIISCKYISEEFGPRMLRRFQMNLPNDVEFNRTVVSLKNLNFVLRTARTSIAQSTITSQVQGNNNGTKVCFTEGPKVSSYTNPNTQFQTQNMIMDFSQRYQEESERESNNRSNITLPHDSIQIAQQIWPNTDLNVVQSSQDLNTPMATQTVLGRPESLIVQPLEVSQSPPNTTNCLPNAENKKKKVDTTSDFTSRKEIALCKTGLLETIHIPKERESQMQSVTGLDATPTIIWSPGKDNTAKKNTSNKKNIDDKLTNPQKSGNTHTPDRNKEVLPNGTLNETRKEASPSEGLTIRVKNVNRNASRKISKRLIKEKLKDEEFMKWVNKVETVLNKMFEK

T6: Rec114–Mei4 complex (combinations of MBP-tagged and HisFlag-tagged subunits) (S. cerevisiae) (UniProt P32841)
T6 sequence 1: T5 sequence
T6 sequence 2: T4 sequence

B1: Mei4(1-90) (domain or fragment, UniProt P29467 1-90)
chain: MSRGKLEDMEQKETSEVDWIICFALIQSRNPTLWKRALSRKKGDVEDVGALKSEKNLKINPRENSKHIYKWVAPFENGFLNNKSLFAHLE
B2: Gal4AD-Rec114 wild type (protein, UniProt P32841 1-428)
chain: T5 sequence
B3: Gal4AD-Rec114-F411A (protein, UniProt P32841 1-428)
chain: T5 sequence with F411A
B4: Gal4AD-Rec114(del152-377) (protein, UniProt P32841)
chain: MYEYCSVVIKKYSKYTIPSFAPNGFQSMLEPPQIDKWQHLSANCTLQFRVLLMDSRQILINVVLNNSTLLENIRLPLGDNQDLIQFSCKSPIISCKYISEEFGPRMLRRFQMNLPNDVEFNRTVVSLKNLNFVLRTARTSIAQSTITSQVQPSEGLTIRVKNVNRNASRKISKRLIKEKLKDEEFMKWVNKVETVLNKMFEK
B5: Gal4AD-Rec114 H39A/L40A/S41A (HLS) mutant (protein, UniProt P32841 1-428)
chain: T5 sequence with H39A, L40A, S41A
B6: Mer2 co-expressed with Rec114 and Mei4 in insect cells (protein, UniProt P21651 1-314)
chain: MVARGRTDEISTDVSEANSEHSLMITETSSPFRSIFSHSGKVANAGALEESDKQILEWAGKLELESMELRENSDKLIKVLNENSKTLCKSLNKFNQLLEQDAATNGNVKTLIKDLASQIENQLDKVSTAMLSKGDEKKTKSDSSYRQVLVEEISRYNSKITRHVTNKQHETEKSMRCTQEMLFNVGSQLEDVHKVLLSLSKDMHSLQTRQTALEMAFREKADHAYDRPDVSLNGTTLLHDMDEAHDKQRKKSVPPPRMMVTRSMKRRRSSSPTLSTSQNHNSEDNDDASHRLKRAARTIIPWEELRPDTLESEL
B7: untagged F411A Rec114(325-428) (domain or fragment, UniProt P32841 325-428)
chain: T1 sequence
B8: Gal4AD-Rec114(53-428) (domain or fragment, UniProt P32841 53-428)
chain: MDSRQILINVVLNNSTLLENIRLPLGDNQDLIQFSCKSPIISCKYISEEFGPRMLRRFQMNLPNDVEFNRTVVSLKNLNFVLRTARTSIAQSTITSQVQGNNNGTKVCFTEGPKVSSYTNPNTQFQTQNMIMDFSQRYQEESERESNNRSNITLPHDSIQIAQQIWPNTDLNVVQSSQDLNTPMATQTVLGRPESLIVQPLEVSQSPPNTTNCLPNAENKKKKVDTTSDFTSRKEIALCKTGLLETIHIPKERESQMQSVTGLDATPTIIWSPGKDNTAKKNTSNKKNIDDKLTNPQKSGNTHTPDRNKEVLPNGTLNETRKEASPSEGLTIRVKNVNRNASRKISKRLIKEKLKDEEFMKWVNKVETVLNKMFEK
B9: Gal4AD-Rec114(1-377) (domain or fragment, UniProt P32841 1-377)
chain: MYEYCSVVIKKYSKYTIPSFAPNGFQSMLEPPQIDKWQHLSANCTLQFRVLLMDSRQILINVVLNNSTLLENIRLPLGDNQDLIQFSCKSPIISCKYISEEFGPRMLRRFQMNLPNDVEFNRTVVSLKNLNFVLRTARTSIAQSTITSQVQGNNNGTKVCFTEGPKVSSYTNPNTQFQTQNMIMDFSQRYQEESERESNNRSNITLPHDSIQIAQQIWPNTDLNVVQSSQDLNTPMATQTVLGRPESLIVQPLEVSQSPPNTTNCLPNAENKKKKVDTTSDFTSRKEIALCKTGLLETIHIPKERESQMQSVTGLDATPTIIWSPGKDNTAKKNTSNKKNIDDKLTNPQKSGNTHTPDRNKEVLPNGTLNETRKEAS

Experiments:
[1] = target: T1, HisSUMORec114(325-428) F411A (S. cerevisiae); test: pull-down
[2] = target: T2, HisSUMORec114(325-428) wild type (S. cerevisiae); test: pull-down
[3] = target: LexA-Rec104 (S. cerevisiae) (UniProt P33323); test: two-hybrid
[4] = target: T3, LexA-Rec102 (S. cerevisiae); test: two-hybrid
[5] = target: T4, LexA-Mei4 (S. cerevisiae); test: two-hybrid
[6] = target: T5, LexA-Rec114 (S. cerevisiae); test: two-hybrid
[7] = target: T6, Rec114–Mei4 complex (combinations of MBP-tagged and HisFlag-tagged subunits) (S. cerevisiae); test: pull-down
[8] = target: untagged F411A Rec114(325-428) (S. cerevisiae) (UniProt P32841); test: SEC-MALS

| Binder | binding [3] | binding [4] | binding [5] | other results |
| --- | --- | --- | --- | --- |
| B1 |  |  |  | binding [1]: no binding; binding [2]: binds |
| B2 | binds | binds | binds | binding [6]: binds |
| B3 | binds | binds | no binding |  |
| B4 | binds | binds |  |  |
| B5 |  |  | binds | binding [6]: binds |
| B6 |  |  |  | binding [7]: no binding |
| B7 |  |  |  | binding [8]: no binding |
| B8 | no binding | no binding |  |  |
| B9 | no binding | no binding |  |  |
